Experimental data published in PMC10075225.
No constants are given. Whether binding was seen depends on the method and setting. Binding seen in cells or lysates may run through a third protein. Some results given as binding are weak or reduced against the parent protein; the word gives no strength.

By UniProt entry, the sequences of proteins in these tests, tags left out. Where a name states a change or a piece, a line headed by the entry shows the natural chain unless it says otherwise. Chains listed by the source or under a name are the forms on record and can include a tag or linker. Residues count along the entry.
UniProt O95166: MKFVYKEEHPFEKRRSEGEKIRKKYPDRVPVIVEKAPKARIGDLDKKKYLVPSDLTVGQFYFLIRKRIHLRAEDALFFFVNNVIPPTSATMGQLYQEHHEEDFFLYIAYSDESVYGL
UniProt P60520: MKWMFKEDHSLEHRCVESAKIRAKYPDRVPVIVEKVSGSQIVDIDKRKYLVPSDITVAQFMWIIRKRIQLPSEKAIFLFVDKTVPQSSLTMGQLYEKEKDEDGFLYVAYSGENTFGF
UniProt Q9BXW4, residues 1-126: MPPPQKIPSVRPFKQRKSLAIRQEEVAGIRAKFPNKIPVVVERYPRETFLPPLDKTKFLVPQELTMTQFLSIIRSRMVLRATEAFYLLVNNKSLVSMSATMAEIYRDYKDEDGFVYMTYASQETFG
Y309A/L312A LMX1B-FLAG (O60663-1, form named): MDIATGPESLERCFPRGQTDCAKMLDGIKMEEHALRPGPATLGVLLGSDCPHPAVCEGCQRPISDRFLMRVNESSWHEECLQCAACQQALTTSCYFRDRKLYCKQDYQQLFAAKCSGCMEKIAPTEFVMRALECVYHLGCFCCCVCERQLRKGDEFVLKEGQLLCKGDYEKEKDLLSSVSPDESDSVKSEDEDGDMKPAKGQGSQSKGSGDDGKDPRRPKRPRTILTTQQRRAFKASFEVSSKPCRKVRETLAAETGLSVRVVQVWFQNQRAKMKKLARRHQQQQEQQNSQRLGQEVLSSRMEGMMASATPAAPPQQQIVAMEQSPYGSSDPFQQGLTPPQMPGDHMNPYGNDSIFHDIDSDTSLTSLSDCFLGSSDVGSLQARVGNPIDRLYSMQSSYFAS

What was measured:
Experiment in all cases: co-IP; GFP-TRAP beads on whole lysates (50 mM Tris-HCl, 0.5% NP40) of HEK293T cells co-transfected with GFP-tagged ATG8 constructs and LMX1A or LMX1B-FLAG (or LIR mutants); 2 h at 4°C; immunoblot
GFP-GABARAP (human) = GFP-GABARAP (human) (UniProt O95166)
GFP-GABARAP-L2 (human) = GFP-GABARAP-L2 (human) (UniProt P60520)
GFP-LC3C (human) = GFP-LC3C (human) (UniProt Q9BXW4)
GFP-LC3A (human) = GFP-LC3A (human) (UniProt Q9H492)

Measured: binding

LMX1B-FLAG (from UniProt O60663-1 1-402)
binds: all assays above

Y309A/L312A LMX1B-FLAG (from UniProt O60663-1 1-402)
binds: all assays above
